# Measurements from PubChem BioAssay AID248 (DTP/NCI, 2004).
# The list shows only some results of the screen, not a fair sample: it is rich in T/C values a quarter to a half above the control, in often repeated tests (any T/C) and in doses without a T/C. Further doses and runs are listed elsewhere. T/C gives the treated animals as a percentage of the vehicle group. Some entries give survivors of the animals treated and no T/C: the source holds a T/C of zero for them, seemingly a mark for toxic or unscored doses. Some survivor counts are full or nearly so, which does not show that the dose was tolerated: survival well below the control is almost never listed, so the zero probably covers shortened survival too. Survivors were counted at the toxicity check, usually on the fifth day, unless a day is given; later deaths do not show. Schedules are NCI's codes, read here as Q, the interval in days (D) or hours (H), X, the number of doses. Some entries were tested several times; the results are listed from low to high. For survival time, the PubChem record calls one and a half times the control and up active, and a quarter to a half above the control has no call in these data; cut-offs in other NCI protocols can differ. Some T/C values carry the count of animals alive at the toxicity check (mostly the fifth day); where none is given, no animal had died by that day.
# Test system: L1210 leukemia ip in BDF1 mice, survival T/C
# Assay: NCI In Vivo Anticancer Drug Screen. Data for tumor model L1210 Leukemia (intraperitoneal) in B6D2F1 (BDF1) mice
# Conditions: T/C endpoint: mean survival time, higher T/C = longer survival
# [1] = dose: 100.0 mg/kg/injection, schedule: Q01DX009 (ip), vehicle: Klucel (hydroxypropylcellulose) (HPC)
# [2] = dose: 200.0 mg/kg/injection, schedule: Q01DX009 (ip), vehicle: Klucel (hydroxypropylcellulose) (HPC)
# [3] = dose: 100.0 mg/kg/injection, schedule: Q04DX003 (ip), vehicle: saline with Tween-80
# [4] = dose: 200.0 mg/kg/injection, schedule: Q04DX003 (ip), vehicle: saline with Tween-80
# [5] = dose: 400.0 mg/kg/injection, schedule: Q04DX003 (ip), vehicle: saline with Tween-80
# [6] = dose: 50.0 mg/kg/injection, schedule: Q01DX009 (ip), vehicle: Klucel (hydroxypropylcellulose) (HPC)
# [7] = dose: 400.0 mg/kg/injection, schedule: Q04DX003 (ip), vehicle: Klucel (hydroxypropylcellulose) (HPC)
# [8] = dose: 200.0 mg/kg/injection, schedule: Q01DX009 (ip), vehicle: saline
# [9] = dose: 200.0 mg/kg/injection, schedule: Q04DX003 (ip), vehicle: Klucel (hydroxypropylcellulose) (HPC)
smiles,measurement,setting,value
NNc1nc2ccccc2s1,survivor count,[1],3 of 6
same,survivor count,[2],0 of 6
Cc1ccccc1Nc1c2ccccc2nc2ccccc12,survivor count,[3],5 of 6
same,survivor count,[4],1 of 6
same,survivor count,[5],0 of 6
CN/N=C/c1ccc([N+](=O)[O-])o1,survivor count,[5],4 of 6
N=C(N)SCc1ccc(Cl)cc1,survivor count,"dose: 100.0 mg/kg/injection, schedule: Q04DX002 (ip), vehicle: saline",2 of 3
same,survivor count,"dose: 200.0 mg/kg/injection, schedule: Q04DX002 (ip), vehicle: saline",0 of 3
same,survivor count,"dose: 400.0 mg/kg/injection, schedule: Q04DX002 (ip), vehicle: saline",0 of 3
CCc1nc(N(C)CC(=O)O)nc(CC)c1-c1ccccc1O,survivor count,"dose: 200.0 mg/kg/injection, schedule: Q04DX002 (ip), vehicle: Klucel (hydroxypropylcellulose) (HPC)",3 of 3
C=CCN(CC=C)CCNc1nc(C(Cl)(Cl)Cl)nc2ccc(Cl)cc12,survivor count,[5],6 of 6
O=C(NO)c1cc(Br)cc(Br)c1O,survivor count,"dose: 200.0 mg/kg/injection, schedule: Q01DX009 (ip), vehicle: saline with Tween-80",3 of 6
same,survivor count,"dose: 400.0 mg/kg/injection, schedule: Q01DX009 (ip), vehicle: saline with Tween-80",0 of 6
O=C(O)C(O)C(O)C(O)CO.[Zn+2] (stereo not drawn),survivor count,[3],6 of 6
same,survivor count,[4],1 of 6
same,survivor count,[5],0 of 6
Nc1ccc(-c2ccc3ccccc3n2)cc1,survivor count,[6],6 of 6
same,survivor count,[1],1 of 6
same,survivor count,[2],0 of 6
same,survivor count,"dose: 400.0 mg/kg/injection, schedule: Q01DX009 (ip), vehicle: Klucel (hydroxypropylcellulose) (HPC)",0 of 6
same,survivor count,[7],0 of 6
Cc1cnc2c(N)nn(C)c2n1,survivor count,[8],1 of 6
same,survivor count,"dose: 400.0 mg/kg/injection, schedule: Q04DX003 (ip), vehicle: alcohol",0 of 6
O=C(Nc1cc(Cl)c(Oc2ccc(Cl)cc2)cc1S(=O)(=O)O)Nc1cccc(Cl)c1Cl,survivor count,[2],2 of 6
O=NN(CCF)C(=O)NCCCl,survivor count,"dose: 32.0 mg/kg/injection, schedule: Q01DX001 (ip), vehicle: Klucel (hydroxypropylcellulose) (HPC)",6 of 10
same,survivor count,"dose: 48.0 mg/kg/injection, schedule: Q01DX001 (ip), vehicle: Klucel (hydroxypropylcellulose) (HPC)",3 of 10 and 5 of 10
same,survivor count,"dose: 71.0 mg/kg/injection, schedule: Q01DX001 (ip), vehicle: Klucel (hydroxypropylcellulose) (HPC)",0 of 10
O=C(Nc1ccc(Nc2ccccc2)cc1)Nc1cccc(C(F)(F)F)c1,survivor count,"dose: 100.0 mg/kg/injection, schedule: Q04DX002 (ip), vehicle: gum acacia",3 of 3
same,survivor count,"dose: 200.0 mg/kg/injection, schedule: Q04DX003 (ip), vehicle: gum acacia",3 of 3
S=C=NCc1ccc(Br)cc1,survivor count,"dose: 20.0 mg/kg/injection, schedule: Q01DX001 (ip), vehicle: other",1 of 6
same,survivor count,"dose: 40.0 mg/kg/injection, schedule: Q01DX001 (ip), vehicle: other",0 of 6
same,survivor count,"dose: 75.0 mg/kg/injection, schedule: Q01DX001 (ip), vehicle: carboxymethylcellulose (CMC)",0 of 6
same,survivor count,"dose: 150.0 mg/kg/injection, schedule: Q01DX001 (ip), vehicle: carboxymethylcellulose (CMC)",1 of 6
same,survivor count,"dose: 300.0 mg/kg/injection, schedule: Q01DX001 (ip), vehicle: carboxymethylcellulose (CMC)",0 of 6
Nc1ncc(-c2ccc(CNc3ccc(C(=O)NC(CC(=O)O)CC(=O)O)cc3)cc2)c(N)n1,T/C,"dose: 25.0 mg/kg/injection, schedule: Q01DX009 (ip), vehicle: saline",138 % of control
same,T/C,"dose: 30.0 mg/kg/injection, schedule: Q01DX009 (ip), vehicle: saline",140 % of control
same,T/C,"dose: 33.0 mg/kg/injection, schedule: Q01DX009 (ip), vehicle: saline",144 % of control
same,T/C,"dose: 50.0 mg/kg/injection, schedule: Q01DX009 (ip), vehicle: saline",131 % of control
same,T/C,"dose: 100.0 mg/kg/injection, schedule: Q01DX001 (ip), vehicle: saline",125 % of control
same,survivor count,"dose: 100.0 mg/kg/injection, schedule: Q01DX009 (ip), vehicle: saline",6 of 6
same,T/C,"dose: 150.0 mg/kg/injection, schedule: Q01DX001 (ip), vehicle: saline",125 and 138 % of control [5 of 6 alive]
same,survivor count,[8],0 of 6
same,T/C,"dose: 225.0 mg/kg/injection, schedule: Q01DX001 (ip), vehicle: saline",128 % of control [4 of 6 alive]
same,survivor count,"dose: 300.0 mg/kg/injection, schedule: Q01DX001 (ip), vehicle: saline",1 of 6
O=P(c1ccc(F)cc1)(c1ccc(F)cc1)c1ccc(F)cc1,survivor count,[6],5 of 6
same,survivor count,"dose: 100.0 mg/kg/injection, schedule: Q04DX003 (ip), vehicle: Klucel (hydroxypropylcellulose) (HPC)",3 of 6
same,survivor count,[9],6 of 6
same,survivor count,[7],4 of 6
Clc1cc2n[nH]nc2c(SCc2ccccc2)n1,survivor count,"dose: 400.0 mg/kg/injection, schedule: Q01DX005 (ip), vehicle: saline with Tween-80",2 of 4
COc1ccc(C2CCCCCC2OS(C)(=O)=O)c(OC)c1OC (stereo not drawn),survivor count,"dose: 400.0 mg/kg/injection, schedule: Q01DX001 (ip), vehicle: carboxymethylcellulose (CMC)",0 of 4
Cc1ccc([N+](=O)[O-])cc1NC(=O)Sc1ccccc1O,survivor count,[3],6 of 6
O=c1[nH]cnc2c1ncn2CCCCCCl,survivor count,[9],0 of 6
same,survivor count,[7],0 of 6
